The source of these data is article PMC8776986.

Chains of the proteins cited; added tags and fusions are not shown. Residues count along the entry.
UniProt P02769, 25-607: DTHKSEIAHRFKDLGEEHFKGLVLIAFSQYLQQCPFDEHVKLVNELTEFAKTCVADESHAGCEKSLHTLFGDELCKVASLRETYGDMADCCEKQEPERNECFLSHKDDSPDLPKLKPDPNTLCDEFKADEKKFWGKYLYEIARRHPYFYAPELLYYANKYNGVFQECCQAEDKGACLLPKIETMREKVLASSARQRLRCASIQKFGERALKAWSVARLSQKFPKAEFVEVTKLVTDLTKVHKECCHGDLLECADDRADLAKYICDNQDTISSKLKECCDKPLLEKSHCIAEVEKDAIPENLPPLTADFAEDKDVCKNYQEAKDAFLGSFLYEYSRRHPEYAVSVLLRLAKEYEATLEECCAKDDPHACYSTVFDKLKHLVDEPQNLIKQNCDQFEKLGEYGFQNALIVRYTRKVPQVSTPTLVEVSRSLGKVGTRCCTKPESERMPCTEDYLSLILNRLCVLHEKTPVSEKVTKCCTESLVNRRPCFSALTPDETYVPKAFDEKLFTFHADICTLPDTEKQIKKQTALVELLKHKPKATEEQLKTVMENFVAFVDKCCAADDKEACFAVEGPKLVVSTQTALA

The target in series [1] is human serum protein (HSA) (human) (UniProt P02768). Briefly: electrochemical aptasensor (DPV, MB release). The note with it: same concentration as thrombin; Sensor rinsed in PBS, pH 7.0 buffer; aptamer hybridized 60 min at room temperature; thrombin reaction 40 min; binding buffer salt and temperature not stated; commercial protein; label: methylene blue adsorbed non-covalently.

Series [2] concerns the target bovine serum protein (BSA) (bovine) (UniProt P02769). Briefly: electrochemical aptasensor (DPV, MB release). The settings on record: same concentration as thrombin; Sensor rinsed in PBS, pH 7.0 buffer; aptamer hybridized 60 min at room temperature; thrombin reaction 40 min; binding buffer salt and temperature not stated; commercial protein; label: methylene blue adsorbed non-covalently.

Negatives hold for the conditions tested.

Take CACTGTGGTTGGTGTGGTTGG / CCAACCACAGTG: the binding result in series [1] and in series [2] was “no binding” throughout.
